These are yes or no findings as the source states them, for the method shown. In cells and extracts the contact can be indirect. Some results given as binding are weak or reduced against the parent protein; the word gives no strength.
Key:
[1] = target: WT ACVR2B (activin receptor IIB), p3XFLAG-CMV-7.1-ACVR2B (UniProt Q13705); test: co-IP; chondrocytes transfected with p3XFLAG-CMV-7.1-ACVR2B or muACVR2B for 36 h, activin A-overexpression conditions; lysis buffer 150 mM NaCl, 1% NP-40, 50 mM Tris, 0.2% SDS, 5 mM NaF; anti-FLAG overnight at 4 °C, protein A/G plus beads 6 h at 4 °C; blot for NOX4
[2] = target: ACVR2B (activin receptor IIB), endogenous (mouse (endogenous in primary mouse articular chondrocytes)) (UniProt P27040); test: co-IP; endogenous proteins in IL-1β-treated or Ad-activin A-infected chondrocytes; lysis buffer 150 mM NaCl, 1% NP-40, 50 mM Tris, 0.2% SDS, 5 mM NaF; anti-ACVR2B overnight at 4 °C, protein A/G plus beads 6 h at 4 °C; blots for ACVR1B, ACVR2B, NOX4

Chains of the proteins cited; added tags and fusions are not shown. Residues count along the entry.
UniProt Q13705, residues 19-512: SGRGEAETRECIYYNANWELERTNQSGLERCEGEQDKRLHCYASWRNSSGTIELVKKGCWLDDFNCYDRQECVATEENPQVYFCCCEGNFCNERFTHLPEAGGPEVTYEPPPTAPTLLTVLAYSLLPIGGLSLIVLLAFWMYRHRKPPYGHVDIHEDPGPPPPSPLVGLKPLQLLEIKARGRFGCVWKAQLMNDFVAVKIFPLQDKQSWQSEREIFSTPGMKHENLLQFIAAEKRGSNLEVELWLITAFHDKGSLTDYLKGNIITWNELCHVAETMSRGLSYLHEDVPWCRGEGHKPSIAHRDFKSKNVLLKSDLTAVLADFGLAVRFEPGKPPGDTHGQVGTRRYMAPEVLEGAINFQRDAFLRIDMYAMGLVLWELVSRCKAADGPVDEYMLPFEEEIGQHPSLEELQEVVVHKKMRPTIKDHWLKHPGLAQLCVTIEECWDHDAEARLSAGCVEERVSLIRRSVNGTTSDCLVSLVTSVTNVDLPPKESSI
UniProt P27040, residues 19-536: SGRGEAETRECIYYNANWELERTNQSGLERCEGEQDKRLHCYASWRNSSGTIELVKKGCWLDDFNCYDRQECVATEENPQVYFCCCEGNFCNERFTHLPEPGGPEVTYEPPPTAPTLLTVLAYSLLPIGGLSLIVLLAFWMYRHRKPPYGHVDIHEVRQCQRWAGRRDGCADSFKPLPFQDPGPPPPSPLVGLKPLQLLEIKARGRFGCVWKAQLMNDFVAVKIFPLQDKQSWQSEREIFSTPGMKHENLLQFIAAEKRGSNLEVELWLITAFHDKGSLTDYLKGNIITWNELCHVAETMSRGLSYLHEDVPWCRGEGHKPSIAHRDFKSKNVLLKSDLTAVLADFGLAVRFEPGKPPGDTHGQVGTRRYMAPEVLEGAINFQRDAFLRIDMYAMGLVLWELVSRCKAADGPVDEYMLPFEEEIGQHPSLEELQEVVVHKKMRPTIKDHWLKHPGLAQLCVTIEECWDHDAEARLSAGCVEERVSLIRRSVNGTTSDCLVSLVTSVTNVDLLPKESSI

Binder	binding [1]	binding [2]
NADPH oxidase 4 (Nox4), endogenous (protein, UniProt Q9JHI8 1-578) MAVSWRSWLANEGVKHLCLLIWLSLNVLLFWKTFLLYNQGPEYYYIHQMLGLGLCLSRASASVLNLNCSLILLPMCRTVLAYLRGSQKVPSRRTRRLLDKSKTLHITCGVTICIFSGVHVAAHLVNALNFSVNYSEDFLELNAARYQNEDPRKLLFTTIPGLTGVCMVVVLFLMVTASTYAIRVSNYDIFWYTHNLFFVFYMLLLLHVSGGLLKYQTNVDTHPPGCISLNQTSSQNMSIPDYVSEHFHGSLPRGFSKLEDRYQKTLVKICLEEPKFQAHFPQTWIWISGPLCLYCAERLYRCIRSNKPVTIISVINHPSDVMELRMIKENFKARPGQYIILHCPSVSALENHPFTLTMCPTETKATFGVHFKVVGDWTERFRDLLLPPSSQDSEILPFIHSRNYPKLYIDGPFGSPFEESLNYEVSLCVAGGIGVTPFASILNTLLDDWKPYKLRRLYFIWVCRDIQSFQWFADLLCVLHNKFWQENRPDFVNIQLYLSQTDGIQKIIGEKYHTLNSRLFIGRPRWKLLFDEIAKCNRGKTVGVFCCGPSSISKTLHSLSNRNNSYGTKFEYNKESFS	binds	binds
ACVR1B, endogenous (receptor, UniProt Q61271 24-505) SGPRGIQALLCACTSCLQTNYTCETDGACMVSIFNLDGVEHHVRTCIPKVELVPAGKPFYCLSSEDLRNTHCCYIDFCNKIDLRVPSGHLKEPAHPSMWGPVELVGIIAGPVFLLFLIIIIVFLVINYHQRVYHNRQRLDMEDPSCEMCLSKDKTLQDLVYDLSTSGSGSGLPLFVQRTVARTIVLQEIIGKGRFGEVWRGRWRGGDVAVKIFSSREERSWFREAEIYQTVMLRHENILGFIAADNKDNGTWTQLWLVSDYHEHGSLFDYLNRYTVTIEGMIKLALSAASGLAHLHMEIVGTQGKPGIAHRDLKSKNILVKKNGMCAIADLGLAVRHDAVTDTIDIAPNQRVGTKRYMAPEVLDETINMKHFDSFKCADIYALGLVYWEIARRCNSGGVHEDYQLPYYDLVPSDPSIEEMRKVVCDQKLRPNVPNWWQSYEALRVMGKMMRECWYANGAARLTALRIKKTLSQLSVQEDVKI	–	binds
